Patent US7264932B2, “Nuclease inhibitor cocktail” (Applera Corporation, priority 1999, dated 2007)

Tested on: RNases in frozen mouse liver tissue sections
Experiment: Isolation of intact RNA from fixed frozen tissue sections

## Cc1cc(-c2ccc(/N=N/c3c(N)ccc4cc(S(=O)(=O)O)ccc34)c(C)c2)ccc1/N=N/c1c(N)ccc2cc(S(=O)(=O)O)ccc12 [Benzopurpurin B, 3,3′-di-methylbiphenyl-4,4′-bis(2-amino-naphthylazo-6-sulfo-nate)]
Inhibitor in the acetone fixative (2 mM Benzopurpurin B)
  isolation of intact total RNA: absolutely required
Inhibitor incorporated into the 1×PBS solution
  incubation time without a significant loss of ribosomal RNA integrity: up to 20 min
